# In the supplement of paper PMC8728848:
# This is one part of the list.
# Key:
# Assay in all cases: glycan array binding signal (z-score within array); higher = stronger binding
# Settings in all cases: glycan notation: IUPAC condensed, linker removed
# [1] = molecular target: Gal(b1-3)GlcNAc(b1-6)[Gal(b1-3)]GalNAc
# Procedure, shortened: (§1)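 From the Consortium for Functional Glycomics database, 3228 arrays were curated, keeping only those whose protein sequence was available. Binding is given as a within-array Z-score averaged across arrays sharing a protein sequence and across linkers. Negative Z-scores can be read as non-binding.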
# Gal(b1-3)GlcNAc6S = molecular target: Gal(b1-3)GlcNAc6S
# Procedure, shortened: as §1
# [2] = molecular target: Gal(b1-3)[Fuc(a1-4)]GlcNAc
# Procedure, shortened: as §1
# [3] = molecular target: Gal(b1-3)[Fuc(a1-4)]GlcNAc(b1-2)Man
# Procedure, shortened: as §1
# [4] = molecular target: Gal(b1-3)[Fuc(a1-4)]GlcNAc(b1-2)Man(a1-3)[Gal(b1-3)[Fuc(a1-4)]GlcNAc(b1-2)Man(a1-6)]Man(b1-4)GlcNAc(b1-4)[Fuc(a1-6)]GlcNAc
# Procedure, shortened: as §1
# [5] = molecular target: Gal(b1-3)[Fuc(a1-4)]GlcNAc(b1-3)Gal(b1-3)[Fuc(a1-4)]GlcNAc
# Procedure, shortened: as §1
# [6] = molecular target: Gal(b1-3)[Fuc(a1-4)]GlcNAc(b1-3)Gal(b1-4)[Fuc(a1-3)]GlcNAc
# Procedure, shortened: as §1
# [7] = molecular target: Gal(b1-3)[Fuc(a1-4)]GlcNAc(b1-6)GalNAc
# Procedure, shortened: as §1
# [8] = molecular target: Gal(b1-3)[GlcNAc(b1-6)]GalNAc
# Procedure, shortened: as §1
# [9] = molecular target: Gal(b1-3)[Neu5Ac(a2-6)]GalNAc
# Procedure, shortened: as §1
# [10] = molecular target: Gal(b1-3)[Neu5Ac(a2-6)]GlcNAc(b1-4)Gal(b1-4)Glc
# Procedure, shortened: as §1
# [11] = molecular target: Gal(b1-3)[Neu5Ac(b2-6)]GalNAc
# Procedure, shortened: as §1
# Gal(b1-4)Gal = molecular target: Gal(b1-4)Gal
# Procedure, shortened: as §1
# [12] = molecular target: Gal(b1-4)GalNAc(a1-3)[Fuc(a1-2)]Gal(b1-4)GlcNAc
# Procedure, shortened: as §1
# [13] = molecular target: Gal(b1-4)GalNAc(b1-3)[Fuc(a1-2)]Gal(b1-4)GlcNAc
# Procedure, shortened: as §1
# Gal(b1-4)Glc = molecular target: Gal(b1-4)Glc
# Procedure, shortened: as §1
# Gal(b1-4)Glc6S = molecular target: Gal(b1-4)Glc6S
# Procedure, shortened: as §1
# Gal(b1-4)GlcNAc = molecular target: Gal(b1-4)GlcNAc
# Procedure, shortened: as §1
# [14] = molecular target: Gal(b1-4)GlcNAc(a1-6)Gal(b1-4)GlcNAc
# Procedure, shortened: as §1
# Gal(b1-4)GlcNAc(b1-2)Man = molecular target: Gal(b1-4)GlcNAc(b1-2)Man
# Procedure, shortened: as §1
# [15] = molecular target: Gal(b1-4)GlcNAc(b1-2)Man(a1-3)Man(b1-4)GlcNAc(b1-4)GlcNAc
# Procedure, shortened: as §1
# [16] = molecular target: Gal(b1-4)GlcNAc(b1-2)Man(a1-3)[Gal(b1-4)GlcNAc(b1-2)Man(a1-6)]Man(b1-4)GlcNAc(b1-4)GlcNAc
# Procedure, shortened: as §1
# [17] = molecular target: Gal(b1-4)GlcNAc(b1-2)Man(a1-3)[Gal(b1-4)GlcNAc(b1-2)Man(a1-6)]Man(b1-4)GlcNAc(b1-4)[Fuc(a1-6)]GlcNAc
# Procedure, shortened: as §1
# [18] = molecular target: Gal(b1-4)GlcNAc(b1-2)Man(a1-3)[Gal(b1-4)GlcNAc(b1-2)Man(a1-6)][Gal(b1-4)GlcNAc(b1-4)]Man(b1-4)GlcNAc(b1-4)[Fuc(a1-6)]GlcNAc
# Procedure, shortened: as §1
# [19] = molecular target: Gal(b1-4)GlcNAc(b1-2)Man(a1-3)[Gal(b1-4)GlcNAc(b1-2)Man(a1-6)][GlcNAc(b1-4)]Man(b1-4)GlcNAc(b1-4)[Fuc(a1-6)]GlcNAc
# Procedure, shortened: as §1
# [20] = molecular target: Gal(b1-4)GlcNAc(b1-2)Man(a1-3)[GlcNAc(b1-2)Man(a1-6)]Man(b1-4)GlcNAc(b1-4)GlcNAc
# Procedure, shortened: as §1
# [21] = molecular target: Gal(b1-4)GlcNAc(b1-2)Man(a1-3)[GlcNAc(b1-4)][Gal(b1-4)GlcNAc(b1-2)Man(a1-6)]Man(b1-4)GlcNAc(b1-4)GlcNAc
# Procedure, shortened: as §1
# [22] = molecular target: Gal(b1-4)GlcNAc(b1-2)Man(a1-3)[Man(a1-6)]Man(b1-4)GlcNAc(b1-4)GlcNAc
# Procedure, shortened: as §1
# [23] = molecular target: Gal(b1-4)GlcNAc(b1-2)Man(a1-6)Man(b1-4)GlcNAc(b1-4)GlcNAc
# Procedure, shortened: as §1
# [24] = molecular target: Gal(b1-4)GlcNAc(b1-2)Man(a1-6)[GlcNAc(b1-2)Man(a1-3)]Man(b1-4)GlcNAc(b1-4)GlcNAc
# Procedure, shortened: as §1
# [25] = molecular target: Gal(b1-4)GlcNAc(b1-2)Man(a1-6)[Man(a1-3)]Man(b1-4)GlcNAc(b1-4)GlcNAc
# Procedure, shortened: as §1
# [26] = molecular target: Gal(b1-4)GlcNAc(b1-2)[Gal(b1-4)GlcNAc(b1-4)]Man(a1-3)[Gal(b1-4)GlcNAc(b1-2)Man(a1-6)]Man(b1-4)GlcNAc(b1-4)GlcNAc
# Procedure, shortened: as §1
# [27] = molecular target: Gal(b1-4)GlcNAc(b1-2)[Gal(b1-4)GlcNAc(b1-4)]Man(a1-3)[Gal(b1-4)GlcNAc(b1-2)[Gal(b1-4)GlcNAc(b1-6)]Man(a1-6)]Man(b1-4)GlcNAc(b1-4)GlcNAc
# Procedure, shortened: as §1
# [28] = molecular target: Gal(b1-4)GlcNAc(b1-2)[Gal(b1-4)GlcNAc(b1-4)]Man(a1-3)[GlcNAc(b1-4)][Gal(b1-4)GlcNAc(b1-2)Man(a1-6)]Man(b1-4)GlcNAc(b1-4)GlcNAc
# Procedure, shortened: as §1
# [29] = molecular target: Gal(b1-4)GlcNAc(b1-2)[Gal(b1-4)GlcNAc(b1-4)]Man(a1-3)[GlcNAc(b1-4)][Gal(b1-4)GlcNAc(b1-2)[Gal(b1-4)GlcNAc(b1-6)]Man(a1-6)]Man(b1-4)GlcNAc(b1-4)GlcNAc
# Procedure, shortened: as §1
# [30] = molecular target: Gal(b1-4)GlcNAc(b1-2)[Gal(b1-4)GlcNAc(b1-6)]Man(a1-6)[Gal(b1-4)GlcNAc(b1-2)Man(a1-3)]Man(b1-4)GlcNAc(b1-4)GlcNAc
# Procedure, shortened: as §1
# [31] = molecular target: Gal(b1-4)GlcNAc(b1-2)[Gal(b1-4)GlcNAc(b1-6)]Man(a1-6)[Gal(b1-4)GlcNAc(b1-2)Man(a1-3)]Man(b1-4)GlcNAc(b1-4)[Fuc(a1-6)]GlcNAc
# Procedure, shortened: as §1
# [32] = molecular target: Gal(b1-4)GlcNAc(b1-2)[Gal(b1-4)GlcNAc(b1-6)]Man(a1-6)[GlcNAc(b1-4)][Gal(b1-4)GlcNAc(b1-2)Man(a1-3)]Man(b1-4)GlcNAc(b1-4)GlcNAc
# Procedure, shortened: as §1
# [33] = molecular target: Gal(b1-4)GlcNAc(b1-2)[Gal(b1-4)GlcNAc(b1-6)]Man(a1-6)[GlcNAc(b1-4)][Gal(b1-4)GlcNAc(b1-2)[Gal(b1-4)GlcNAc(b1-4)]Man(a1-3)]Man(b1-4)GlcNAc(b1-4)[Fuc(a1-6)]GlcNAc
# Procedure, shortened: as §1
# [34] = molecular target: Gal(b1-4)GlcNAc(b1-3)Gal(b1-3)GalNAc
# Procedure, shortened: as §1
# [35] = molecular target: Gal(b1-4)GlcNAc(b1-3)Gal(b1-3)GlcNAc
# Procedure, shortened: as §1
# [36] = molecular target: Gal(b1-4)GlcNAc(b1-3)Gal(b1-4)Glc
# Procedure, shortened: as §1
# [37] = molecular target: Gal(b1-4)GlcNAc(b1-3)Gal(b1-4)GlcNAc
# Procedure, shortened: as §1
# [38] = molecular target: Gal(b1-4)GlcNAc(b1-3)Gal(b1-4)GlcNAc(b1-2)Man(a1-3)[Gal(b1-4)GlcNAc(b1-3)Gal(b1-4)GlcNAc(b1-2)Man(a1-6)]Man(b1-4)GlcNAc(b1-4)GlcNAc
# Procedure, shortened: as §1
# [39] = molecular target: Gal(b1-4)GlcNAc(b1-3)Gal(b1-4)GlcNAc(b1-2)Man(a1-3)[Gal(b1-4)GlcNAc(b1-3)Gal(b1-4)GlcNAc(b1-2)Man(a1-6)]Man(b1-4)GlcNAc(b1-4)[Fuc(a1-6)]GlcNAc
# Procedure, shortened: as §1
binder,measurement,setting,value
SP15308F-bth-333-19-333 (Bacteroides thetaiotaomicron) (protein) SCNNEWESEQYVQMVSFKAPVNAQGVTPIYIRYKPEGKVTYQLPLIVSGSTMNSKDLNVHVGLDLDTLDVLNVEHFGSRKELFFKPLENKYYEFPETVQIPAGECTSLLPIDFALKDLDQVDKWVLPLAIQSNDPSHNYQANPRKFYRRAMLRISPFNDYSGQYSATAYKVYFKGNEKEAIVPEYHTSYVIDDKTIFFYAGLIDIDRLDRKYYKIKFEFTEEKIDLQTRKLKISSDNEDINLVVKGQPSYTVEEEMDATRPYLKHIYVTINNLEYEFTDYTSVPGYPLEYVVKGSLTMERKINTQIPDEDQAIEW,glycan array binding signal (z-score),[1],0.874
same,glycan array binding signal (z-score),Gal(b1-3)GlcNAc6S,-0.484
same,glycan array binding signal (z-score),[2],0.524
same,glycan array binding signal (z-score),[3],0.606
same,glycan array binding signal (z-score),[4],1.26
same,glycan array binding signal (z-score),[5],-0.559
same,glycan array binding signal (z-score),[6],0.291
same,glycan array binding signal (z-score),[7],0.191
same,glycan array binding signal (z-score),[8],1.44
same,glycan array binding signal (z-score),[9],-0.545
same,glycan array binding signal (z-score),[10],0.401
same,glycan array binding signal (z-score),[11],-0.816
same,glycan array binding signal (z-score),Gal(b1-4)Gal,-1.04
same,glycan array binding signal (z-score),[12],-0.102
same,glycan array binding signal (z-score),[13],0.863
same,glycan array binding signal (z-score),Gal(b1-4)Glc,0.374
same,glycan array binding signal (z-score),Gal(b1-4)Glc6S,-0.415
same,glycan array binding signal (z-score),Gal(b1-4)GlcNAc,-0.324
same,glycan array binding signal (z-score),[14],0.206
same,glycan array binding signal (z-score),Gal(b1-4)GlcNAc(b1-2)Man,2.88
same,glycan array binding signal (z-score),[15],-0.47
same,glycan array binding signal (z-score),[16],0.388
same,glycan array binding signal (z-score),[17],1.81
same,glycan array binding signal (z-score),[18],-0.791
same,glycan array binding signal (z-score),[19],-0.07
same,glycan array binding signal (z-score),[20],-1.22
same,glycan array binding signal (z-score),[21],-0.682
same,glycan array binding signal (z-score),[22],-0.719
same,glycan array binding signal (z-score),[23],-1.02
same,glycan array binding signal (z-score),[24],-0.963
same,glycan array binding signal (z-score),[25],-0.531
same,glycan array binding signal (z-score),[26],0.402
same,glycan array binding signal (z-score),[27],-0.113
same,glycan array binding signal (z-score),[28],0.22
same,glycan array binding signal (z-score),[29],0.006
same,glycan array binding signal (z-score),[30],-0.431
same,glycan array binding signal (z-score),[31],-0.313
same,glycan array binding signal (z-score),[32],-1.21
same,glycan array binding signal (z-score),[33],0.062
same,glycan array binding signal (z-score),[34],0.095
same,glycan array binding signal (z-score),[35],-0.026
same,glycan array binding signal (z-score),[36],0.117
same,glycan array binding signal (z-score),[37],-0.506
same,glycan array binding signal (z-score),[38],1.11
same,glycan array binding signal (z-score),[39],-0.157

# Pulled one by one from the entries so far, three records:
binder,measurement,setting,value
SP15308F-bth-333-19-333 (Bacteroides thetaiotaomicron) (protein) SCNNEWESEQYVQMVSFKAPVNAQGVTPIYIRYKPEGKVTYQLPLIVSGSTMNSKDLNVHVGLDLDTLDVLNVEHFGSRKELFFKPLENKYYEFPETVQIPAGECTSLLPIDFALKDLDQVDKWVLPLAIQSNDPSHNYQANPRKFYRRAMLRISPFNDYSGQYSATAYKVYFKGNEKEAIVPEYHTSYVIDDKTIFFYAGLIDIDRLDRKYYKIKFEFTEEKIDLQTRKLKISSDNEDINLVVKGQPSYTVEEEMDATRPYLKHIYVTINNLEYEFTDYTSVPGYPLEYVVKGSLTMERKINTQIPDEDQAIEW,glycan array binding signal (z-score),Gal(b1-3)GlcNAc6S,-0.484
same,glycan array binding signal (z-score),[30],-0.431
same,glycan array binding signal (z-score),[8],1.44
